Source: PubChem BioAssay AID540276 (National Center for Advancing Translational Sciences (NCATS), 2011)
The campaign covered roughly 300,000 compounds. About 5,400 (1.8%) were called active. This list was built around the results that the source calls inconclusive (neither active nor inactive); the mix of calls is not that of the screen. Calls come from the whole dose curve; tested in HEK293 cells. Potencies of inconclusive entries are doubtful fits and often do not repeat.

assay: qHTS for inhibitors of binding or entry into cells for Marburg Virus; settings: Marburg virus pseudotyped entry inhibition, cell reporter; activity change, negative = inhibition: at 37.8 µM (top of the series) unless noted
% is set by controls: 0 for no effect and ±100 for the full control effect; potency is the fitted concentration of half-maximal effect.

SMILES	activity change, negative = inhibition	Potency
O=C(COC(=O)Cc1ccsc1)Nc1ccccc1	inactive: 2.31% [at 46.1 µM]	
O=C(CN1CCN(c2ccc([N+](=O)[O-])cc2)CC1)c1ccccc1		inconclusive: 0.708 µM [activator, single point]
COc1cccc(-c2cn3ncsc3n2)c1		inconclusive: 1.12 µM [activator, full curve, poor fit]
CCCOC1CCCN(C(=O)c2ccc3oc(C(C)C)nc3c2)C1 (centres undefined)	inactive: -4.54%	
Cc1c(C(=O)OCC(=O)c2c(N)n(CC(C)C)c(=O)n(C)c2=O)oc2ccccc12		active: 10 µM
COC(=O)c1cc(C(=O)OC)cc(N2C(=O)CC(NNC(=O)c3ccccc3Cl)C2=O)c1 (centres undefined)		inconclusive: 10 µM [activator, partial curve, poor fit]
FC(F)Oc1ccc(NC(=S)NCCc2ccccn2)cc1		inconclusive: 3.98 µM [activator, partial curve, poor fit]
Cc1cc(C)cc(C(=O)N2CC(=O)Nc3ccccc32)c1		inconclusive: 35.5 µM [inhibitor, single point]
O=C(COC(=O)Cc1ccccc1F)NCc1ccc(Cl)cc1		inconclusive: 35.5 µM [inhibitor, single point]
Cc1ccc(C(=O)Nc2ccc(Br)cc2)cc1S(=O)(=O)Nc1ccccn1		inconclusive: 35.5 µM [activator, single point]
O=C(Nc1ccc(Nc2ccccc2)cc1)c1ccc(Cl)cc1Cl	inactive: -2.21% [at 46.1 µM]	
Cc1cccc2cc(C#N)c(SCc3nnc(-c4ccccc4[N+](=O)[O-])o3)nc12		inconclusive: 35.5 µM [inhibitor, single point]
Cc1cc(C)c(C(=O)Nc2ccccc2)c(CC(C)(C)C(=O)O)c1		inconclusive: 6.31 µM [inhibitor, single point]
Cc1ccc(CN2C3=NCCCN3c3ccccc32)cc1		inconclusive: 4.47 µM [inhibitor, partial curve]
Cc1ccc(Cc2cn3cc(-c4ccc(F)cc4)nc3s2)cc1		inconclusive: 1.58 µM [activator, partial curve, poor fit]
CC(C)C(=O)Nc1cccc(-c2cnc3ccccc3n2)c1		inconclusive: 29.1 µM [inhibitor, single point]
c1ccc(C2=Nn3c(nnc3-c3ccncc3)SC2)cc1		inconclusive: 5.62 µM [inhibitor, single point]
Cc1cccc(C(C)C)c1NC(=O)C(NS(=O)(=O)c1cccc2nsnc12)c1ccccc1 (centres undefined)		inconclusive: 10 µM [inhibitor, single point]
CCOC(=O)c1sc(N(Cc2ccccc2)C(=O)COC(=O)c2ccccc2O)nc1C		inconclusive: 2.82 µM [activator, full curve]
CCCCc1ccc(NC(=S)NN2CCOCC2)cc1		inconclusive: 6.31 µM [inhibitor, single point]
O=C(CCc1nnc(CCCc2ccccc2)o1)NCCN1CCOC1=O		inconclusive: 2 µM [inhibitor, partial curve, poor fit]

Three entries already listed, arranged by length of the SMILES, rising:
SMILES	activity change, negative = inhibition	Potency
Cc1ccc(CN2C3=NCCCN3c3ccccc32)cc1		inconclusive: 4.47 µM [inhibitor, partial curve]
Cc1ccc(Cc2cn3cc(-c4ccc(F)cc4)nc3s2)cc1		inconclusive: 1.58 µM [activator, partial curve, poor fit]
O=C(CCc1nnc(CCCc2ccccc2)o1)NCCN1CCOC1=O		inconclusive: 2 µM [inhibitor, partial curve, poor fit]

(cont.)

SMILES	activity change, negative = inhibition	Potency
CC(NC(=O)C12CC3CC(CC(C3)C1)C2)C(=O)NCCN(C)C (centres undefined)		inconclusive: 2.24 µM [inhibitor, partial curve]
Cc1ccc(CNC(=O)c2nccnc2C(=O)O)cc1		inconclusive: 7.08 µM [inhibitor, partial curve, poor fit]
CCCCNC(=S)N(C)/N=C/c1ccc(F)cc1		inconclusive: 1.26 µM [activator, single point]
COc1ccc(CN(CC(=O)NCc2ccc(F)cc2)C(=O)CCC(=O)Nc2nccs2)cc1	inactive: 12.2% [at 46.1 µM]	
CCCCNC(=O)Nc1ccc([C@@](O)(C(=O)OC)C(F)(F)F)cc1		inconclusive: 1.03 µM [activator, full curve, poor fit]
Cc1ccc(S(=O)(=O)C2CCOC2=O)cc1 (centres undefined)		inconclusive: 6.51 µM [activator, single point]
Cc1cc(C)c2c(N)c(C(=O)N/N=C/c3cccnc3)sc2n1		inconclusive: 2.82 µM [activator, partial curve, poor fit]
CC(=O)c1cccc(N=Cc2c(O)c3ccccc3oc2=O)c1	inactive: 8.22% [at 46.1 µM]	
Cc1nc2ccccn2c1C(=O)N/N=C/c1cc(C)n(-c2ccc(Br)cc2)c1C		inconclusive: 14.6 µM [inhibitor, single point]
COc1ccc(C(=O)Nc2nccs2)cc1[N+](=O)[O-]	inactive: 16.6%	
CCc1cccc(CC)c1NC(=O)C1SC(=Nc2ccccc2C)C(c2nc3ccccc3s2)=C1N (centres undefined)		inconclusive: 0.0517 µM [inhibitor, full curve, poor fit]
COCCN(C(=O)c1cc2c(s1)CCC2)c1c(N)n(CC(C)C)c(=O)[nH]c1=O	inactive: 7.06%	
CCn1nc(C)c(CNCc2cn[nH]c2-c2cc3ccccc3o2)c1C	inactive: 2.31% [at 46.1 µM]	
CCOC(=O)N1CCC(NC(=O)c2cc(-c3ccc(F)cc3)[nH]c2C)CC1		inconclusive: 35.5 µM [inhibitor, single point]
Cc1cc(C)c2c(n1)sc1c(=O)n(-c3ccccc3C(F)(F)F)nnc12	inactive: 0.531% [at 46.1 µM]	
CCN(CC)S(=O)(=O)c1csc(C(=O)OCC(=O)c2ccccc2)c1	inactive: -12.7%	
N#CC(C#N)=C/C(C#N)=C(/N)N1CCN(c2ccc(Cl)cc2)CC1	inactive: -19.4%	
Cc1ccc(NC(=O)COc2nsnc2N2CCOCC2)cc1Cl		inconclusive: 10 µM [inhibitor, single point]
O=C(CSc1nnc(-c2ccc(C(F)(F)F)cn2)o1)Nc1ccccc1Cl		inconclusive: 28.2 µM [activator, single point]
COc1ccc(CNC(=O)CCc2nc(-c3ccc(OC)cc3)no2)cc1		inconclusive: 35.5 µM [activator, single point]
CCOC(=O)/C=C/C(=O)OCC(=O)Nc1c(Cl)cccc1Cl		inconclusive: 8.91 µM [inhibitor, partial curve, poor fit]
Cc1ccc(-c2nn(CCC(=O)NC[C@H]3CCCO3)c(=O)c3ccccc23)cc1		inconclusive: 20 µM [inhibitor, single point]
